This is one part of the list. Repeats are few or missing, and single values can be far off.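 Imaging used 1,536-well plates; nuclei positive for cleaved PARP by antibody were divided by total DNA-stained nuclei to yield the apoptosis fraction. Doses for screening kept most cells viable, and cell lines differ markedly in resting and induced cleaved-PARP levels.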
Each molecule was assayed on COLO829 (assay: cleaved PARP positive nuclei fraction relative to DMSO control; melanoma cells; higher = more apoptosis). Conditions: library dose: low library concentration; 72 h.

Row | Compound | cleaved PARP positive nuclei fraction [%]
1 | O=C(O)c1ccc2c(c1)nc(Nc1cccc(Cl)c1)c1ccncc12 + Nc1cccc2c1CN(C1CCC(=O)NC1=O)C2=O [lenalidomide] (first compound 0.4 µM, partner dose 1 µM) | 83
2 | Nc1ncn([C@H]2C[C@H](O)[C@@H](CO)O2)c(=O)n1 [decitabine] + OCc1c[nH]c2ccccc12 [Indole-3-carbinol] (first compound 0.1 µM, partner dose 0.8 µM) | 101
3 | CC(C)C[C@H](NC(=O)[C@H](Cc1ccccc1)NC(=O)c1cnccn1)B(O)O [Bortezomib] + Cn1c(Nc2ccc(C(F)(F)F)cc2)nc2cc(Oc3ccnc(-c4ncc(C(F)(F)F)[nH]4)c3)ccc21 [CHIR265] (first compound 0.001 µM, partner dose 0.08 µM) | 180
4 | Cn1c(=O)n(-c2ccc(C(C)(C)C#N)cc2)c2c3cc(-c4cnc5ccccc5c4)ccc3ncc21 + C[C@]1(c2nc3c(C(N)=O)cccc3[nH]2)CCCN1 [Veliparib] (first compound 0.004 µM, partner dose 1.4 µM) | 93.5
5 | CS(=O)(=O)CCNCc1ccc(-c2ccc3ncnc(Nc4ccc(OCc5cccc(F)c5)c(Cl)c4)c3c2)o1 [lapatinib] + COCC[n+]1c2c(n(Cc3cnccn3)c1C)C(=O)c1ccccc1C2=O [YM155] (first compound 0.8 µM, partner dose 0.0004 µM) | 155
6 | CCCS(=O)(=O)Nc1ccc(F)c(C(=O)c2c[nH]c3ncc(Cl)cc23)c1F + Nc1nc(F)nc2c1ncn2[C@@H]1O[C@H](CO)[C@@H](O)[C@@H]1O [fludarabine] (first compound 0.08 µM, partner dose 0.2 µM) | 169
7 | Cc1cc(Nc2cc(N3CCN(C)CC3)nc(/C=C/c3ccccc3)n2)n[nH]1 + CO[C@H]1C[C@@H]2CC[C@@H](C)[C@@](O)(O2)C(=O)C(=O)N2CCCC[C@H]2C(=O)O[C@H]([C@H](C)C[C@@H]2CC[C@@H](OCCO)[C@H](OC)C2)CC(=O)[C@H](C)/C=C(\C)[C@@H](O)[C@@H](OC)C(=O)[C@H](C)C[C@H](C)/C=C/C=C/C=C/1C [everolimus] (first compound 0.04 µM, partner dose 0.02 µM) | 354
8 | CCCS(=O)(=O)Nc1ccc(F)c(C(=O)c2c[nH]c3ncc(Cl)cc23)c1F + Nc1ncn([C@H]2C[C@H](O)[C@@H](CO)O2)c(=O)n1 [decitabine] (first compound 0.08 µM, partner dose 0.1 µM) | 59.3

2 entries from above, with tabs:
Row	Compound	cleaved PARP positive nuclei fraction [%]
3	CC(C)C[C@H](NC(=O)[C@H](Cc1ccccc1)NC(=O)c1cnccn1)B(O)O [Bortezomib] + Cn1c(Nc2ccc(C(F)(F)F)cc2)nc2cc(Oc3ccnc(-c4ncc(C(F)(F)F)[nH]4)c3)ccc21 [CHIR265] (first compound 0.001 µM, partner dose 0.08 µM)	180
6	CCCS(=O)(=O)Nc1ccc(F)c(C(=O)c2c[nH]c3ncc(Cl)cc23)c1F + Nc1nc(F)nc2c1ncn2[C@@H]1O[C@H](CO)[C@@H](O)[C@@H]1O [fludarabine] (first compound 0.08 µM, partner dose 0.2 µM)	169
